{
  "sequences": {"note": "Amino acid sequences for entries named in this document (tags omitted). A change or cut given only in a name is not applied to a line headed by its entry. Chains listed by the source or under a name are the forms on record and can include a tag or linker.", "Non-glycosylated human sonic hedgehog mutant N278A with HA tag (N278A-HA) (Q15465, form named)": "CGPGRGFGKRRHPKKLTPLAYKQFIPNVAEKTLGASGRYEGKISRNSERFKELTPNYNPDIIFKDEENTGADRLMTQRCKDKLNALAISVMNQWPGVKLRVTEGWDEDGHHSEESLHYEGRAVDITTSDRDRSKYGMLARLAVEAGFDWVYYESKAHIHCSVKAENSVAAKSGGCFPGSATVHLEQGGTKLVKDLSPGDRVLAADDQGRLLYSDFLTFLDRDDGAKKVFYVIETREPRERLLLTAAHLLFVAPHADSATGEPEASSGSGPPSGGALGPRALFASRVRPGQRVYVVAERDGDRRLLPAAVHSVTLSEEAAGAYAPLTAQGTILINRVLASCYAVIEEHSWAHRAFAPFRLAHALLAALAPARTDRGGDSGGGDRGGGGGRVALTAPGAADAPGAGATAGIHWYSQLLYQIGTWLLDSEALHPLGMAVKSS"},
  "source": "paper PMC4049591",
  "target": "Non-glycosylated human sonic hedgehog mutant N278A with HA tag (N278A-HA) (human) (UniProt Q15465)",
  "assay": "co-IP; cells co-transfected with SHH-HA or N278A-HA and vector, wild type OS-9.2 or R188A-OS-9; lysed in buffer with 1% Triton; immunoprecipitated with HA antibodies; blotted with OS-9 antibodies",
  "note": "Results are given in words; binding and its absence hold for the method and conditions named. Binding seen in cells or lysates may run through a third protein. Binding calls can cover weak binding; strength is not graded here.",
  "data": [
    {"substance": "OS-9 R188A mutant (MRH domain mutant unable to bind trimmed glycans) (from UniProt Q13438-2)", "values": [
      {"measurement": "binding", "result": "binds"}
    ]}
  ]
}
